Some of the results follow. The main result of the screen is listed elsewhere. These columns were measured beside it and carry no call. The list favours compounds with an active or inconclusive main result. The note in brackets gives the kind of curve behind each potency; many fits are weak.
Experiment: qHTS Assay to Find Inhibitors of Chronic Active B-Cell Receptor Signaling
Conditions: ABC-DLBCL IkBa-CBG/CBR reporter, luminescence ratio (green luciferase fused to IkBa over red control in TMD8 lymphoma cells), 4 h
Method in brief: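 Cell line TMD8 (human ABC DLBCL), stably expressing tet-inducible CBG68-IkBa fusion and CBR; IMDM/0.5% FBS; cpd up to 46 uM; dox induction, 4 h, 37C/5% CO2; dual luminescence; green/red ratio; MG132 control.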

[1] = measured here: CBR red luminescence, cell number
[2] = measured here: IkBa-CBG green luminescence

SMILES | AC50 [1] | AC50 [2]
Cc1ccc(C2=Nc3ccccc3NC(C)(c3ccc(C)o3)C2)o1 (configuration not stated) | 29.1 µM [falling, single point] | –
CC1(C(=O)N2CC3(CC(c4cccc(NC(=O)COc5ccc(Cl)cc5)c4)=NO3)C[C@@H]2C(N)=O)CC1 (some centres not stated) | 11.2 µM [falling, partial curve] | –
Cc1ccc(C)c(N2N=C(C(=O)NCCN3C(=O)S/C(=C\c4cccnc4)C3=O)CCC2=O)c1 | 5.17 µM [falling, partial curve] | –
COc1ccc(NC(=O)CN2CCCC2c2cccs2)cc1S(=O)(=O)N1CCCCC1 (configuration not stated) | 6.51 µM [rising, single point] | –
NC(=O)C1CCN(c2nc(-c3cccnc3)cs2)CC1 | 1.84 µM [rising, full curve, poor fit] | –
O=C(COC(=O)c1cc(NS(=O)(=O)c2cccs2)ccc1O)Nc1cc(Cl)ccc1Cl | 35.5 µM [rising, single point] | –
COCc1nnc(NC(=O)c2cc3ccccc3o2)s1 | 2 µM [falling, full curve, poor fit] | –
COc1ccc(S(=O)(=O)N2c3ccccc3OCC2C)cc1 (configuration not stated) | 35.5 µM [rising, single point] | 11.2 µM [falling, partial curve]
COc1ccc(OC)c(C2C3=C(N=c4s/c(=C\c5cccc(O)c5)c(=O)n42)c2ccccc2CC3)c1 (configuration not stated) | 29.1 µM [falling, single point] | 25.9 µM [rising, partial curve, poor fit]
Cc1ccc(-n2c(C)nc3ncnc(-c4ccccc4)c32)cc1 | 4.11 µM [rising, partial curve, poor fit] | –
N/C(=N\OC(=O)/C=C/c1ccccc1)c1ccccn1 | 0.447 µM [falling, full curve] | –
Cc1ccccc1CNC(=O)c1ccccc1N | 0.82 µM [falling, full curve, poor fit] | –
CC(Sc1nnc(C2CC2)n1C)C(=O)Nc1ccc2c(c1)CCC2 (configuration not stated) | 32.6 µM [rising, single point] | –
O=C(NNC(=O)c1cc(-c2cccnc2)nc2ccccc12)Nc1ccc(Cl)cc1 | 3.55 µM [rising, partial curve, poor fit] | –
COc1ccc(-c2ccc(-c3nnc(-c4ccncc4)o3)cc2)cc1 | 35.5 µM [rising, single point] | –
Cc1ccc(S(=O)(=O)n2c(C)nc3cc(C)ccc32)cc1 | 3.98 µM [rising, partial curve, poor fit] | –
COC(=O)c1sccc1-n1cccc1C(=O)C(=O)Nc1ccc(F)cc1 | 11.2 µM [falling, partial curve, poor fit] | –
O=C(COC(=O)c1cccc(N2C(=O)C3CC=CCC3C2=O)c1)c1ccccc1 (configuration not stated) | 35.5 µM [falling, single point] | –
Cc1cc2n(n1)SC(Nc1cc(Cl)ccc1Cl)N2 (configuration not stated) | 11.6 µM [rising, partial curve, poor fit] | –
O=C(Nc1nc2ccccc2[nH]1)c1ccccc1[N+](=O)[O-] | 35.5 µM [falling, single point] | –
CCOC(=O)Cc1csc(SCC(=O)N(CC(C)C)c2c(N)n(Cc3ccccc3)c(=O)[nH]c2=O)n1 | 3.66 µM [falling, full curve, poor fit] | –

SMILES | AC50 [1] | AC50 [2]
O=C(N/N=C/c1cccnc1)c1ccc2c(c1)OCCO2 | 10.3 µM [falling, partial curve, poor fit] | –
O=C(CN1CCCCCC1)Nc1ccc(S(=O)(=O)N2CCCCC2)cc1 | 4.47 µM [falling, full curve, poor fit] | –
COC(=O)c1sccc1NC(=O)CC1C(=O)NCCN1C(=O)Nc1ccc(OCc2ccccc2)cc1 (configuration not stated) | 11.2 µM [falling, partial curve] | –
Cc1cccc(N2CCN(S(=O)(=O)c3ccc4c(c3)CCN4C(=O)CCC(=O)O)CC2)c1C | 7.94 µM [rising, partial curve] | –
CCN(CC)S(=O)(=O)c1ccc(NC(=O)COC(=O)c2ccc(NC(=O)CC#N)cc2)cc1 | 25.1 µM [falling, single point] | –
CCOc1ccccc1C(=O)NCC(=O)N1CCC(C)CC1 | 9.2 µM [falling, partial curve] | –
Cc1c(N=C2N=C(NC(=O)Nc3ccc(Cl)cc3)c3ccccc32)c(=O)n(-c2ccccc2)n1C | 4.47 µM [rising, full curve, poor fit] | –
CCSc1sccc1C1C(C#N)=C(N)N(c2cccnc2)C2=C1C(=O)CCC2 (configuration not stated) | 29.1 µM [rising, single point] | –
CCN(CC)CCN1CCn2c3c(c4cc(C)ccc42)CCCC31 (configuration not stated) | 20.6 µM [falling, partial curve, poor fit] | –
Cc1cccc(OCC(=O)Nc2ccccc2N2CCCCC2)c1C | 29.1 µM [rising, single point] | –
COc1ccc(-c2[nH]n(-c3ccc([N+](=O)[O-])cc3)c(=O)c2C=NCCN2CCNCC2)cc1 | 0.355 µM [falling, full curve] | –
COC1C=CC(CNC(=O)c2cc3c(=O)n4cccc(C)c4nc3n2C)(OC)O1 (configuration not stated) | 35.5 µM [rising, single point] | –
COCCn1c(C2CCCCC2)nc2sc3ccccc3c(=O)c2c1=O | 2.24 µM [rising, full curve, poor fit] | –
CNc1nc(-c2ccccn2)nnc1-c1ccccc1 | 13 µM [falling, partial curve, poor fit] | –
Cc1cccc(C(=O)Nc2ccc(C(=O)/C=C/c3cccs3)cc2)c1 | 35.5 µM [falling, single point] | –
O=C(Nc1ccc(S(=O)(=O)N2CCCC2)cc1)c1ccc(Br)o1 | 11.2 µM [falling, partial curve, poor fit] | –
O=c1oc(Nc2ccccc2Cl)nc2ccccc12 | 1.78 µM [falling, full curve] | –
CC(=O)N1CCN(C(=O)Nc2cccc(C(F)(F)F)c2)CC1 | 17.8 µM [rising, single point] | –
COc1ccc(C2C(C(=O)Nc3ccccc3OC)=C(C)Nc3nnnn32)c(OC)c1 (configuration not stated) | 15.8 µM [falling, single point] | –
COc1ccc(NC(=O)c2ccc3snnc3c2)cc1 | 9.2 µM [falling, partial curve] | –
O=C(CSc1cccc[n+]1[O-])c1cc2ccccc2o1 | 31.6 µM [rising, single point] | 31.6 µM [falling, single point]

Single records, as listed above. Values in the order: AC50 [1] | AC50 [2]
`CNc1nc(-c2ccccn2)nnc1-c1ccccc1` is listed with 13 µM [falling, partial curve, poor fit] | –
`CC1(C(=O)N2CC3(CC(c4cccc(NC(=O)COc5ccc(Cl)cc5)c4)=NO3)C[C@@H]2C(N)=O)CC1` (some centres not stated) is listed with 11.2 µM [falling, partial curve] | –
`O=C(NNC(=O)c1cc(-c2cccnc2)nc2ccccc12)Nc1ccc(Cl)cc1` is listed with 3.55 µM [rising, partial curve, poor fit] | –
`NC(=O)C1CCN(c2nc(-c3cccnc3)cs2)CC1` is listed with 1.84 µM [rising, full curve, poor fit] | –

More compounds.

SMILES | AC50 [1] | AC50 [2]
Cc1ccc(Cl)cc1NC(=O)c1cnn2c(C(F)F)cc(-c3ccccc3)nc12 | 6.31 µM [rising, single point] | –
O=C(Nc1ccccc1C(=O)N/N=C/c1ccc(F)cc1)c1ccccc1Br | 17.8 µM [falling, single point] | –
O=C(CN1C2=NCCCN2c2ccccc21)c1ccc(Cl)cc1Cl | 20.6 µM [falling, single point] | –
O=S(=O)(c1ccc(Cl)c(NC(=S)N/N=C/c2ccc(O)cc2)c1)N1CCOCC1 | 14.6 µM [falling, partial curve] | –
O=C(CSc1nnc(-c2cccs2)o1)N1CCCCC1 | 3.66 µM [falling, partial curve] | –
O=C(NCc1ccco1)c1ccc(Cn2c(=O)c3ccccc3n(Cc3ccc(Cl)cc3)c2=O)cc1 | 2.31 µM [rising, partial curve, poor fit] | –
O=C(Nc1ccccc1)c1cn2ccccc2n1 | 0.447 µM [falling, full curve] | –
C=CCSc1n[nH]c(-c2ccccc2)n1 | 0.184 µM [rising, full curve, poor fit] | –
O=C(c1cc2c(s1)-c1ccccc1OC2)N1CCc2ccccc2C1 | 23.1 µM [falling, single point] | –
CN1C(C(=O)NCC2CC2)CC2Cn3c(nc4cc(Cl)c(Cl)cc43)C21 (configuration not stated) | 35.5 µM [falling, single point] | 20 µM [rising, partial curve, poor fit]
O=C(Cn1nnc(-c2ccccc2)n1)N1CCN(c2ccc(F)cc2)CC1 | 0.562 µM [rising, full curve, poor fit] | –
Cc1ccccc1C(=O)Nc1nc(SCc2ccc(Cl)cc2)n[nH]1 | 0.631 µM [rising, full curve, poor fit] | –
O=C(NC1CC1)c1ccc2c(c1)ncn2C1CCCC1 | 11.2 µM [falling, partial curve] | –
O=C(CN1CCN(c2ccc(F)cc2)CC1)Nc1cccnc1Cl | 10 µM [falling, partial curve] | –
O=C(Nc1nccs1)c1ccc(COc2ccccc2Cl)o1 | 35.5 µM [falling, single point] | –
Cc1csc(NC(=O)c2ccc(C(=O)Nc3nc(C)cs3)cc2)n1 | 1.26 µM [falling, full curve] | 0.794 µM [rising, full curve, poor fit]
CCOc1cc(/C=N/NC(N)=O)ccc1OCC(=O)Nc1ccc(C)c(C)c1 | 0.251 µM [rising, full curve, poor fit] | –
O=C(CC(Nc1ccc(F)cc1)C(=O)O)c1ccccc1 (configuration not stated) | 16.4 µM [falling, single point] | –
CCc1cccc(NC(=O)C2CCCN2S(=O)(=O)c2ccc3c(c2)n(C)c(=O)c(=O)n3C)c1 (configuration not stated) | 35.5 µM [rising, single point] | –
Cc1ccccc1N(CC(=O)NC(C)(C)C)C(=O)CCC(=O)Nc1nccs1 | 11.2 µM [falling, partial curve, poor fit] | –

Reference: PubChem BioAssay AID493014 (National Center for Advancing Translational Sciences (NCATS), 2011)
